Laboratory results published in PMC12867838.
No constants are given. Whether binding was seen depends on the method and setting. In cells and extracts the contact can be indirect. Some results given as binding are weak or reduced against the parent protein; the word gives no strength. Sequences can lack the tags named with a protein.

The chains behind the UniProt entries cited, without tags or fusion partners. Residues count along the entry.
UniProt Q9NZQ7, residues 19-290: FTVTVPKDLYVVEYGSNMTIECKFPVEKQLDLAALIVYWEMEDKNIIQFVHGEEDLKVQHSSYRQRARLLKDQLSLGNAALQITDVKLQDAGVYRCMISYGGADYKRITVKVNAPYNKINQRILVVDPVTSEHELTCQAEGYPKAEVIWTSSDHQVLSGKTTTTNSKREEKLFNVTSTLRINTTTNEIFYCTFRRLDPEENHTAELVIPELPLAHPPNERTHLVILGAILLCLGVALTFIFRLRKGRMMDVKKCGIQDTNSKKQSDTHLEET

Biological target: programmed cell death ligand 1 (PD-L1), HA- or Flag-tagged (UniProt Q9NZQ7)
Assay: co-IP; NP40 lysates of co-transfected cells (293T, Panc-1, Patu-8988), 1-2 mg whole cell lysate incubated with bead-conjugated anti-HA or anti-Flag antibodies overnight at 4°C, immunoblot; cells treated with 10 μM MG132 for 6 h before harvesting

B1: F-box protein 9 (FBXO9), HA- or Flag-tagged (protein, UniProt Q9UK97 1-447)
chain: MPDIIWVFPPQAEAEEDCHSDTVRADDDEENESPAETDLQAQLQMFRAQWMFELAPGVSSSNLENRPCRAARGSLQKTSADTKGKQEQAKEEKARELFLKAVEEEQNGALYEAIKFYRRAMQLVPDIEFKITYTRSPDGDGVGNSYIEDNDDDSKMADLLSYFQQQLTFQESVLKLCQPELESSQIHISVLPMEVLMYIFRWVVSSDLDLRSLEQLSLVCRGFYICARDPEIWRLACLKVWGRSCIKLVPYTSWREMFLERPRVRFDGVYISKTTYIRQGEQSLDGFYRAWHQVEYYRYIRFFPDGHVMMLTTPEEPQSIVPRLRTRNTRTDAILLGHYRLSQDTDNQTKVFAVITKKKEEKPLDYKYRYFRRVPVQEADQSFHVGLQLCSSGHQRFNKLIWIHHSCHITYKSTGETAVSAFEIDKMYTPLFFARVRSYTAFSERPL
Q: Which binding does the source give for B1 here?
A: The binding was “binds”.
